{"source": "patent US6642368B1", "about": "“Programmed cell death and caspase-12” (The General Hospital Corporation, priority 1998, dated 2003)", "binders": {"B1": {"name": "small subunit (10 kDa) of caspase-12Δ, starting right after Asp318 (protein)", "chain": "TDEERVLSCKWNNSITKAHVETDFIAFKSSTPHNISWKVGKTGSLFISKLIDCFKKYCWCYHLEEIFRKVQHSFEVPGELTQMPTIERVSMTRYFYLFPGN"}}, "molecular_target": "T1, His-tagged caspase-12Δ, intact form (42 kDa), partially purified from E. coli (mouse) (UniProt O08736)", "T1 sequence": "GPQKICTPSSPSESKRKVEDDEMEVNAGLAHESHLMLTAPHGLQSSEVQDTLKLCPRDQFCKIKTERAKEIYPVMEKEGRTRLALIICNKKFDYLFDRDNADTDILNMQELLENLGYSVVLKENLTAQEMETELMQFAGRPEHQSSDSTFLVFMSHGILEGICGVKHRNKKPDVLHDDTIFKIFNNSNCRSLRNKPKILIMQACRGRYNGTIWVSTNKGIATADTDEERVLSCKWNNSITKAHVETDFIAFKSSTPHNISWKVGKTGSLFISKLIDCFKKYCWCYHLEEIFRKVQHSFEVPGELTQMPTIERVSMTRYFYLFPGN", "test": "co-purification with the His-tagged protein on a Ni column; chains identified by microsequencing", "note": "No constants are given. Whether binding was seen depends on the method and setting. In cells and extracts the contact can be indirect. Some results given as binding are weak or reduced against the parent protein; the word gives no strength. Where a sequence is shown, tags or fusion partners need not be part of it.", "data": [{"binder": "B1", "values": [{"measurement": "binding", "result": "binds"}]}]}
